Among the data in paper PMC11286534 are binding values, retold here.

Sequences of proteins named here, by UniProt entry; tags and fusion partners are left off.
UniProt Q96LC9: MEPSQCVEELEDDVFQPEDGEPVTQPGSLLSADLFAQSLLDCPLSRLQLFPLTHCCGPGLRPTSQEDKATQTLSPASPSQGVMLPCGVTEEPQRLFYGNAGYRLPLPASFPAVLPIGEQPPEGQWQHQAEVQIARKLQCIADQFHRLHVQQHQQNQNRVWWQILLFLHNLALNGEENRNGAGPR

Results are given in words; binding and its absence hold for the method and conditions named. Binding seen in cells or lysates may run through a third protein. Some results given as binding are weak or reduced against the parent protein; the word gives no strength.

The target in this assay is BMF, endogenous in HCC1171 cells (human (endogenous in HCC1171)) (UniProt Q96LC9). Briefly: co-IP; anti-BMF or anti-BIM on 200 µg of M-PER lysate of HCC1171 cells, 3 h on ice, Protein G Dynabeads, three washes; cells treated with JDQ443 (400 nM), IAG933 (600 nM) or both.

On to “BCLxL (BCL2L1), endogenous in HCC1171 cells (from UniProt Q07817-1 1-233)”, for which the binding result is on record as “binds”.
